# PubChem BioAssay AID330 (DTP/NCI, 2004)
# The list is a part of this screen's results and no random one: it is rich in T/C values a quarter to a half above the control, in often repeated tests (any T/C) and in doses without a T/C. Other doses and runs of a compound stand elsewhere. T/C gives the treated animals as a percentage of the vehicle group. Some entries give survivors of the animals treated and no T/C: the source holds a T/C of zero for them, seemingly a mark for toxic or unscored doses. Some doses without a T/C left all or most animals alive at the check, yet need not have been tolerated: the source hardly ever lists a survival T/C far under the control, and the zero likely stands for such cases as well. Survivors were counted at the toxicity check, usually on the fifth day, unless a day is given; later deaths do not show. Schedule codes are those of the source, taken here to give the interval after Q, in days (D) or hours (H), and the number of doses after X. Some structures stand for samples that the source files as different forms (salt, stereo form or complex); doses refer to the form tested. Some entries were tested several times; the values are given in rising order. Signs of the kind (2×) give the number of equal values in this list. For survival time, the PubChem record calls one and a half times the control and up active, and a quarter to a half above the control has no call in these data; cut-offs in other NCI protocols can differ. Some T/C values carry the count of animals alive at the toxicity check (mostly the fifth day); without a count, all were alive then.
# Test system: P388 leukemia ip, CD2F1 mice, survival T/C
# Experiment: NCI In Vivo Anticancer Drug Screen. Data for tumor model P388 Leukemia (intraperitoneal) in CD2F1 (CDF1) mice
# Details: T/C endpoint: median survival time, higher T/C = longer survival
# [1] = dose: 5.0 mg/kg/injection, schedule: Q01DX005 (iv), vehicle: clinical formulation
compound,measurement,setting,value
O=C1NC2(CCCCC2)C(=O)N1CCN(CCCl)CCCl,T/C,"dose: 0.75 mg/kg/injection, schedule: Q01DX009 (ip), vehicle: Klucel (hydroxypropylcellulose) (HPC)","132, 134, 145 % of control"
same,T/C,"dose: 0.78 mg/kg/injection, schedule: Q01DX009 (ip), vehicle: saline",130 and 132 % of control
same,T/C,"dose: 1.25 mg/kg/injection, schedule: Q01DX005 (ip), vehicle: other",125 % of control
same,T/C,"dose: 1.25 mg/kg/injection, schedule: Q01DX005 (iv), vehicle: clinical formulation",128 % of control
same,T/C,"dose: 1.25 mg/kg/injection, schedule: Q01DX009 (ip), vehicle: clinical formulation",142 % of control
same,T/C,"dose: 1.25 mg/kg/injection, schedule: Q01DX009 (ip), vehicle: other",136 % of control
same,T/C,"dose: 1.5 mg/kg/injection, schedule: Q01DX009 (ip), vehicle: Klucel (hydroxypropylcellulose) (HPC)",142 and 143 % of control
same,T/C,"dose: 1.5 mg/kg/injection, schedule: Q01DX009 (ip), vehicle: saline with Tween-80",127 % of control
same,T/C,"dose: 1.5 mg/kg/injection, schedule: Q01DX009 (ip), vehicle: saline, evaluated on day 30","128 [5 of 6 alive], 131, 134, 151 % of control [5 of 6 alive]"
same,T/C,"dose: 1.5 mg/kg/injection, schedule: Q01DX009 (ip), vehicle: saline, evaluated on day 60",113 % of control
same,T/C,"dose: 1.56 mg/kg/injection, schedule: Q01DX009 (ip), vehicle: saline",141 and 147 % of control [5 of 6 alive]
same,T/C,"dose: 2.5 mg/kg/injection, schedule: Q01DX005 (ip), vehicle: other",133 % of control
same,T/C,"dose: 2.5 mg/kg/injection, schedule: Q01DX005 (iv), vehicle: clinical formulation",130 % of control
same,T/C,"dose: 2.5 mg/kg/injection, schedule: Q01DX009 (ip), vehicle: saline with Tween-80",146 % of control
same,T/C,"dose: 2.5 mg/kg/injection, schedule: Q01DX009 (ip), vehicle: saline",148 % of control
same,T/C,"dose: 2.6 mg/kg/injection, schedule: Q01DX009 (ip), vehicle: Klucel (hydroxypropylcellulose) (HPC), evaluated on day 45","145, 169, 171 % of control"
same,T/C,"dose: 2.6 mg/kg/injection, schedule: Q01DX009 (ip), vehicle: Klucel (hydroxypropylcellulose) (HPC), evaluated on day 60",167 % of control
same,T/C,"dose: 3.0 mg/kg/injection, schedule: Q01DX005 (ip), vehicle: saline",127 and 135 % of control
same,T/C,"dose: 3.0 mg/kg/injection, schedule: Q01DX005 (ip), vehicle: suspension in saline",138 % of control
same,T/C,"dose: 3.0 mg/kg/injection, schedule: Q01DX009 (ip), vehicle: other",132 % of control
same,T/C,"dose: 3.0 mg/kg/injection, schedule: Q01DX009 (ip), vehicle: saline, evaluated on day 30","140, 146, 160, 177 % of control"
same,T/C,"dose: 3.0 mg/kg/injection, schedule: Q01DX009 (ip), vehicle: saline, evaluated on day 60",128 % of control
same,T/C,"dose: 4.0 mg/kg/injection, schedule: Q01DX009 (ip), vehicle: Klucel (hydroxypropylcellulose) (HPC), evaluated on day 30",181 % of control [9 of 10 alive]
same,T/C,"dose: 4.0 mg/kg/injection, schedule: Q01DX009 (ip), vehicle: Klucel (hydroxypropylcellulose) (HPC), evaluated on day 45","177, 182, 188, 195, 200, 202, 228 % of control"
same,T/C,"dose: 4.0 mg/kg/injection, schedule: Q01DX009 (ip), vehicle: Klucel (hydroxypropylcellulose) (HPC), evaluated on day 60","184, 186 (2×), 196, 201, 212 % of control"
same,T/C,"dose: 5.0 mg/kg/injection, schedule: Q01DX001 (ip), vehicle: other",128 % of control
same,T/C,"dose: 5.0 mg/kg/injection, schedule: Q01DX005 (ip), vehicle: other",143 % of control
same,T/C,[1],146 % of control
same,survivor count,[1],6 of 8
same,T/C,"dose: 5.0 mg/kg/injection, schedule: Q01DX009 (ip), vehicle: clinical formulation",133 % of control
same,survivor count,"dose: 5.0 mg/kg/injection, schedule: Q01DX009 (ip), vehicle: saline with Tween-80",5 of 8
same,T/C,"dose: 6.0 mg/kg/injection, schedule: Q01DX005 (ip), vehicle: saline",136 and 144 % of control
same,T/C,"dose: 6.0 mg/kg/injection, schedule: Q01DX009 (ip), vehicle: Klucel (hydroxypropylcellulose) (HPC), evaluated on day 30","195, 196, 200, 201 % of control"
same,T/C,"dose: 6.0 mg/kg/injection, schedule: Q01DX009 (ip), vehicle: Klucel (hydroxypropylcellulose) (HPC), evaluated on day 45","192, 198, 201, 214, 216, 230, 232 % of control"
same,T/C,"dose: 6.0 mg/kg/injection, schedule: Q01DX009 (ip), vehicle: Klucel (hydroxypropylcellulose) (HPC), evaluated on day 60","202, 208, 209 [9 of 10 alive], 220, 226, 238 % of control"
same,T/C,"dose: 6.0 mg/kg/injection, schedule: Q01DX009 (ip), vehicle: saline, evaluated on day 30","164, 166, 169, 223 % of control"
same,T/C,"dose: 6.0 mg/kg/injection, schedule: Q01DX009 (ip), vehicle: saline, evaluated on day 45",240 % of control
same,T/C,"dose: 6.0 mg/kg/injection, schedule: Q01DX009 (ip), vehicle: saline, evaluated on day 60",136 % of control
same,T/C,"dose: 8.0 mg/kg/injection, schedule: Q01DX001 (ip), vehicle: saline",127 % of control
same,T/C,"dose: 9.0 mg/kg/injection, schedule: Q01DX009 (ip), vehicle: Klucel (hydroxypropylcellulose) (HPC), evaluated on day 30",227 % of control
same,T/C,"dose: 9.0 mg/kg/injection, schedule: Q01DX009 (ip), vehicle: Klucel (hydroxypropylcellulose) (HPC), evaluated on day 45","200, 231, 242, 244, 245 [7 of 8 alive], 248, 250, 273 % of control"
same,T/C,"dose: 9.0 mg/kg/injection, schedule: Q01DX009 (ip), vehicle: Klucel (hydroxypropylcellulose) (HPC), evaluated on day 60","227, 228, 239, 248, 283, 303 % of control"
same,T/C,"dose: 10.0 mg/kg/injection, schedule: Q01DX001 (ip), vehicle: other",133 % of control
same,survivor count,"dose: 10.0 mg/kg/injection, schedule: Q01DX005 (ip), vehicle: other",6 of 10
same,survivor count,"dose: 10.0 mg/kg/injection, schedule: Q01DX005 (iv), vehicle: clinical formulation",7 of 8
same,T/C,"dose: 10.0 mg/kg/injection, schedule: Q01DX005 (iv), vehicle: other",133 % of control
same,T/C,"dose: 12.0 mg/kg/injection, schedule: Q01DX005 (iv), vehicle: suspension in saline",126 % of control
same,T/C,"dose: 12.0 mg/kg/injection, schedule: Q01DX009 (ip), vehicle: Klucel (hydroxypropylcellulose) (HPC)",129 % of control
same,T/C,"dose: 12.0 mg/kg/injection, schedule: Q01DX009 (ip), vehicle: saline, evaluated on day 30","117, 169, 184, 211 % of control"
same,T/C,"dose: 12.0 mg/kg/injection, schedule: Q01DX009 (ip), vehicle: saline, evaluated on day 60",151 % of control
same,T/C,"dose: 12.5 mg/kg/injection, schedule: Q01DX009 (ip), vehicle: saline",127 and 137 % of control
same,T/C,"dose: 13.0 mg/kg/injection, schedule: Q01DX009 (ip), vehicle: Klucel (hydroxypropylcellulose) (HPC), evaluated on day 30",240 % of control
same,T/C,"dose: 13.0 mg/kg/injection, schedule: Q01DX009 (ip), vehicle: Klucel (hydroxypropylcellulose) (HPC), evaluated on day 45","98, 99 [9 of 10 alive], 169, 250, 267, 326 % of control"
same,T/C,"dose: 13.0 mg/kg/injection, schedule: Q01DX009 (ip), vehicle: Klucel (hydroxypropylcellulose) (HPC), evaluated on day 60","131, 132, 140, 158, 245 % of control"
same,T/C,"dose: 16.0 mg/kg/injection, schedule: Q01DX001 (ip), vehicle: saline",133 % of control
same,T/C,"dose: 16.0 mg/kg/injection, schedule: Q01DX001 (ip), vehicle: suspension in saline",148 % of control [5 of 6 alive]
same,survivor count,"dose: 20.0 mg/kg/injection, schedule: Q01DX005 (iv), vehicle: clinical formulation",4 of 8 (2×) and 6 of 8
same,survivor count,"dose: 20.0 mg/kg/injection, schedule: Q01DX009 (ip), vehicle: clinical formulation",4 of 8 and 7 of 8 (2×)
same,survivor count,"dose: 20.0 mg/kg/injection, schedule: Q01DX009 (ip), vehicle: other",5 of 10
same,survivor count,"dose: 20.0 mg/kg/injection, schedule: Q01DX009 (ip), vehicle: saline with Tween-80",6 of 8 and 8 of 8
same,T/C,"dose: 20.0 mg/kg/injection, schedule: Q01DX009 (oral), vehicle: other",125 % of control
same,survivor count,"dose: 24.0 mg/kg/injection, schedule: Q01DX009 (ip), vehicle: Klucel (hydroxypropylcellulose) (HPC)",6 of 6
same,survivor count,"dose: 24.0 mg/kg/injection, schedule: Q01DX009 (ip), vehicle: saline with Tween-80",4 of 6
same,T/C,"dose: 24.0 mg/kg/injection, schedule: Q01DX009 (ip), vehicle: saline, evaluated on day 30","170, 228, 239 % of control"
same,T/C,"dose: 24.0 mg/kg/injection, schedule: Q01DX009 (ip), vehicle: saline, evaluated on day 60",173 % of control
same,survivor count,"dose: 24.0 mg/kg/injection, schedule: Q01DX009 (ip), vehicle: saline",6 of 6
same,survivor count,"dose: 25.0 mg/kg/injection, schedule: Q01DX009 (ip), vehicle: Klucel (hydroxypropylcellulose) (HPC)",6 of 8
same,survivor count,"dose: 25.0 mg/kg/injection, schedule: Q01DX009 (ip), vehicle: saline",4 of 6 and 6 of 6
same,T/C,"dose: 25.0 mg/kg/injection, schedule: Q01DX009 (oral), vehicle: Klucel (hydroxypropylcellulose) (HPC)",126 and 130 % of control
same,T/C,"dose: 32.0 mg/kg/injection, schedule: Q01DX001 (ip), vehicle: saline",138 % of control
same,T/C,"dose: 32.0 mg/kg/injection, schedule: Q01DX001 (ip), vehicle: suspension in saline",145 % of control [5 of 6 alive]
same,survivor count,"dose: 40.0 mg/kg/injection, schedule: Q01DX009 (ip), vehicle: clinical formulation","1 of 8, 2 of 8, 3 of 8"
same,survivor count,"dose: 40.0 mg/kg/injection, schedule: Q01DX009 (ip), vehicle: saline with Tween-80",1 of 8 and 3 of 8
same,survivor count,"dose: 40.0 mg/kg/injection, schedule: Q01DX009 (ip), vehicle: saline",3 of 8
same,survivor count,"dose: 50.0 mg/kg/injection, schedule: Q01DX001 (ip), vehicle: saline",6 of 6
same,T/C,"dose: 50.0 mg/kg/injection, schedule: Q01DX009 (oral), vehicle: Klucel (hydroxypropylcellulose) (HPC)",130 % of control
same,survivor count,"dose: 96.0 mg/kg/injection, schedule: Q01DX009 (oral), vehicle: Klucel (hydroxypropylcellulose) (HPC)",6 of 6
same,T/C,"dose: 96.0 mg/kg/injection, schedule: Q01DX009 (oral), vehicle: saline",145 % of control
same,survivor count,"dose: 100.0 mg/kg/injection, schedule: Q01DX001 (ip), vehicle: Klucel (hydroxypropylcellulose) (HPC)",5 of 6
same,survivor count,"dose: 100.0 mg/kg/injection, schedule: Q01DX001 (ip), vehicle: saline",6 of 6
